These results are taken from article PMC9564178 (Cells, 2022).

The target in the assay is T1, human recombinant TPPP3 (hexaHis fusion) (human) (UniProt Q9BW30).
T1 sequence: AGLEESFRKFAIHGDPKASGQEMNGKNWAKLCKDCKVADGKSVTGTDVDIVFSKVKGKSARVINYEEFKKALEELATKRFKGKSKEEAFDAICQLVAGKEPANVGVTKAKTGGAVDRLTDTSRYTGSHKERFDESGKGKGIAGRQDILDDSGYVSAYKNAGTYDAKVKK
Put plainly: ELISA; TPPP3 or TPPP1 immobilised on the plate (5 μg/mL, PBS), tubulin added at various concentrations, bound tubulin detected by a specific antibody; both purified. (ELISA stands for enzyme-linked immunosorbent assay.)

No constants are given. Whether binding was seen depends on the method and setting. Binding calls can cover weak binding; strength is not graded here. Where a sequence is shown, tags or fusion partners need not be part of it.

As for Tubulin (bovine) (complex), the binding result is “binds”.
